Results as given in the supplement of paper PMC10849652.
This is one part of the list.

The chains behind the UniProt entries cited, without tags or fusion partners. Where a name states a change or a piece, a line headed by the entry shows the natural chain unless it says otherwise.
UniProt P54198, whole entry, looked up: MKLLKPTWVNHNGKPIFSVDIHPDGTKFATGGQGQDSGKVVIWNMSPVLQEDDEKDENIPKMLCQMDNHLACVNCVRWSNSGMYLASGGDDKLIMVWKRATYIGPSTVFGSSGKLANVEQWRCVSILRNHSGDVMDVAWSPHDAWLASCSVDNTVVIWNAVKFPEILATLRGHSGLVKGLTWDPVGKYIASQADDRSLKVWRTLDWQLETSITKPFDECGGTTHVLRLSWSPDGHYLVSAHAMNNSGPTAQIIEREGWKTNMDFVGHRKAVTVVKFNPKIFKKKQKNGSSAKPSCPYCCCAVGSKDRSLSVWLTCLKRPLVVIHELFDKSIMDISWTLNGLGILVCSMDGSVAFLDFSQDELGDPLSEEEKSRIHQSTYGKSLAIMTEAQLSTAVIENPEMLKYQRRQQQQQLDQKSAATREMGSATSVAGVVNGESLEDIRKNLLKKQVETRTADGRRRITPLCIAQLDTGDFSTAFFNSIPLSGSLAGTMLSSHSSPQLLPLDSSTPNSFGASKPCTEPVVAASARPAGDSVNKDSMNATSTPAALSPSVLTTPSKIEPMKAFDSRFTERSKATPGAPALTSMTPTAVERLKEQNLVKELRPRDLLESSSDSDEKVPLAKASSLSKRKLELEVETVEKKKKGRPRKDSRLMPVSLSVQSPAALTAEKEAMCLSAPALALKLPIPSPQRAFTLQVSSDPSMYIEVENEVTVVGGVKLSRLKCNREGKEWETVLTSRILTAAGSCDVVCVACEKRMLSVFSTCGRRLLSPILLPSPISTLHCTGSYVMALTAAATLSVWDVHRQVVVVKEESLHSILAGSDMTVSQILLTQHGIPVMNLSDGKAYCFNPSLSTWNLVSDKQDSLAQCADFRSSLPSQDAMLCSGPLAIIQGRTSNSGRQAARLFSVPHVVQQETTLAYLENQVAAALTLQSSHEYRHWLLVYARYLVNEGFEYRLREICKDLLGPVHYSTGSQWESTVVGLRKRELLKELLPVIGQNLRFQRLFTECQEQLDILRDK
UniProt Q8WVB3: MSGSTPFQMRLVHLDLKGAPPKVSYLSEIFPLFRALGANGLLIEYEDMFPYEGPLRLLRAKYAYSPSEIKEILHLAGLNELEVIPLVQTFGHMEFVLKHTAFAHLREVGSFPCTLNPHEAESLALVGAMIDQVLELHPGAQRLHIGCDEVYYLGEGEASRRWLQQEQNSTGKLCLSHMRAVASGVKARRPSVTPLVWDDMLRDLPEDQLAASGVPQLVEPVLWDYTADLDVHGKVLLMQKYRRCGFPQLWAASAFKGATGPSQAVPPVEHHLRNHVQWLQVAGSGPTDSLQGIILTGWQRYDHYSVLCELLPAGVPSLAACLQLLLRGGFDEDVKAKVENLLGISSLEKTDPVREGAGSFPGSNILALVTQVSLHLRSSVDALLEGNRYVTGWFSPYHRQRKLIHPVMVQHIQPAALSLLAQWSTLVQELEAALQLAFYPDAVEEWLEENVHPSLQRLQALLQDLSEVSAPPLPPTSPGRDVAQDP
UniProt Q6NT76: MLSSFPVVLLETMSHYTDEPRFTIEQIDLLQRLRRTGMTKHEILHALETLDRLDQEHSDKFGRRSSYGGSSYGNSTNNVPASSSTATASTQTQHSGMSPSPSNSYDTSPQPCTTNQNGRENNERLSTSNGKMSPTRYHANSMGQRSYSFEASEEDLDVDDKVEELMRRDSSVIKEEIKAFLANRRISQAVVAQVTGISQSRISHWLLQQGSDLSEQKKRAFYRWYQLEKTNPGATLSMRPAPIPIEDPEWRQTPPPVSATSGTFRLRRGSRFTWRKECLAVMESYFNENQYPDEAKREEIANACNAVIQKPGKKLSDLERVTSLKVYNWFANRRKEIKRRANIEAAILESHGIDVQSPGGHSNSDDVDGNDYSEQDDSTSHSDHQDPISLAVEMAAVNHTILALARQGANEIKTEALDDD
UniProt P05114: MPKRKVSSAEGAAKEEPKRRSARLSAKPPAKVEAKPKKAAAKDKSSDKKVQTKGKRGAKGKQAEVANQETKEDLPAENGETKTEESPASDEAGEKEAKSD
UniProt Q9Y241: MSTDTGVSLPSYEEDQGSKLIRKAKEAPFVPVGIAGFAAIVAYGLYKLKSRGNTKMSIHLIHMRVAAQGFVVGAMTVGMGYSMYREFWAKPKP
UniProt Q14469: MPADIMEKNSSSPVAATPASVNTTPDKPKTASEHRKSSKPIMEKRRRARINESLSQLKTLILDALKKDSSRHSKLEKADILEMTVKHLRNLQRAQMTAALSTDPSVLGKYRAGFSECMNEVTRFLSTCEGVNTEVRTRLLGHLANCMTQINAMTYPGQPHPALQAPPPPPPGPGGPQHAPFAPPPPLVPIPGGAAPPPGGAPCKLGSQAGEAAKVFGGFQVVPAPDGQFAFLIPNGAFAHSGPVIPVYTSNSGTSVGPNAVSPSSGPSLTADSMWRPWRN
UniProt Q9NQG7: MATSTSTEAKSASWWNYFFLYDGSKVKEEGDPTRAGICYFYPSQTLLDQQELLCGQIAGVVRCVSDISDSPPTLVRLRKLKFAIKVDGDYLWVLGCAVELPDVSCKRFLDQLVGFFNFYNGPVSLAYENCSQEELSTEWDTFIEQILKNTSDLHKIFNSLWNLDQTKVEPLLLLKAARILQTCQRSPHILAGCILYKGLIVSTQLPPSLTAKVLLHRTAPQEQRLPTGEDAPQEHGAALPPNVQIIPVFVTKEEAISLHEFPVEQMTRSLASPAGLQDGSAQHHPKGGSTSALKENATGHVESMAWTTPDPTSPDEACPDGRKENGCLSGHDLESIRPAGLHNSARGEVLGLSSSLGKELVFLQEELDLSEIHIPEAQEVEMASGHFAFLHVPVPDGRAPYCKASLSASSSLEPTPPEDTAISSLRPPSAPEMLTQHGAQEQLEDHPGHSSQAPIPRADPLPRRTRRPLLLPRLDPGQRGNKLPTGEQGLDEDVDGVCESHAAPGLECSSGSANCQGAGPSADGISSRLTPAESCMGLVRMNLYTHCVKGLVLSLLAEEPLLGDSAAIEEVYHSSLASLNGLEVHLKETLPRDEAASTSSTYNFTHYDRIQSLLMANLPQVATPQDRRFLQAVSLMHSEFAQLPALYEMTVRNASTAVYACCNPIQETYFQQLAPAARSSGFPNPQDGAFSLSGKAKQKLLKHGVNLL
UniProt Q8IWL3: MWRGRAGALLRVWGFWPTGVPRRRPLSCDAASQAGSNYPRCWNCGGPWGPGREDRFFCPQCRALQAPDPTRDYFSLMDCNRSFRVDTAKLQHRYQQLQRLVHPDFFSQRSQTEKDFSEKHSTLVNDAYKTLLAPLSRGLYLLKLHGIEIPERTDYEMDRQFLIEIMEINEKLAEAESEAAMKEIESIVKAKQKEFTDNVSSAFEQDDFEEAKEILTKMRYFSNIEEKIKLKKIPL
UniProt P30519: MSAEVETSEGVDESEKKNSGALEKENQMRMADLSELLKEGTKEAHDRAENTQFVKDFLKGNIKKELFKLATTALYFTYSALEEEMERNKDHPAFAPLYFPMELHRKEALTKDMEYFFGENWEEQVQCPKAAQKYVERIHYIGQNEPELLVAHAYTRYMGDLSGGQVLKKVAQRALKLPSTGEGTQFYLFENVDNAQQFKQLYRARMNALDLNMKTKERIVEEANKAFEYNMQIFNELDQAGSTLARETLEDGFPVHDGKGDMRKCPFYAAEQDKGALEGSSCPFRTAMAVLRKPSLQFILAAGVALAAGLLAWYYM

Tests used:
Assay in all cases: log2 fold change, soluble protein after heating vs DMSO (PISA); higher = thermal stabilisation; K562 lysate, 10 uM; active = over 0.2 and 3.5 SD of the protein, either way, in both replicates (recomputed)
[1] = compound: CS(=O)(=O)CCNCc1ccc(-c2ccc3ncnc(Nc4ccc(OCc5cccc(F)c5)c(Cl)c4)c3c2)o1 [lapatinib]
Outline: (§1)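 The values are log-two fold changes in thermal stability compared with solvent controls and come from duplicates. They were obtained by TMTpro 16plex LC-MS/MS, with channel sums equalised, on the supernatant after 21,000xg for 90 min. That supernatant came from crude K562 extract at 1 mg/mL protein treated with 10 μM compound for 30 min, heated for 3 min across 48°C-58°C, pooled and brought to 0.5% NP-40 at 4°C.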

[2] = compound: C[C@@H](Oc1cc(-c2cnn(C3CCNCC3)c2)cnc1N)c1c(Cl)ccc(F)c1Cl [crizotinib]
Outline: as §1

[3] = compound: C[C@H](C1=CC=C(C=C1)C(=O)NC2=C3C=CNC3=NC=C2)N
Outline: as §1

[4] = compound: C[C@H](Nc1ncnc2nc[nH]c12)c1cc2cccc(Cl)c2c(=O)n1-c1ccccc1 [duvelisib]
Outline: as §1

[5] = compound: Cc1cc(Nc2cc(CN3CCOCC3)c3nc(C)c(Cc4ccc(Cl)cc4F)n3n2)n[nH]1 [gandotinib]
Outline: as §1

[6] = compound: Cc1cc(Nc2cc(N3CCN(C)CC3)nc(Sc3ccc(NC(=O)C4CC4)cc3)n2)n[nH]1 [tozasertib]
Outline: as §1

[7] = compound: Cc1ccc(-n2nc(C(C)(C)C)cc2NC(=O)Nc2ccc(OCCN3CCOCC3)c3ccccc23)cc1 [doramapimod]
Outline: as §1

[8] = compound: Cc1cccc(CC(=O)N2CCc3c2ccc(-c2cn(C)c4ncnc(N)c24)c3F)n1
Outline: as §1

[9] = compound: Cc1cn(-c2cc(NC(=O)c3ccc(C)c(Nc4nccc(-c5cccnc5)n4)c3)cc(C(F)(F)F)c2)cn1 [nilotinib]
Outline: as §1

[10] = compound: Cc1nc(Nc2n[nH]c3c2CN(C(=O)N[C@H](CN(C)C)c2ccccc2)C3(C)C)c2sccc2n1
Outline: as §1

[11] = compound: Cc1nc(Nc2ncc(C(=O)Nc3c(C)cccc3Cl)s2)cc(N2CCN(CCO)CC2)n1 [dasatinib]
Outline: as §1

[12] = compound: Cc1ncc(-c2ccnc(Nc3ccc(S(C)(=O)=O)cc3)n2)n1C(C)C
Outline: as §1

[13] = compound: Cn1cc(-c2ccc3c(c2)CCN3C(=O)Cc2cccc(C(F)(F)F)c2)c2c(N)ncnc21
Outline: as §1

[14] = compound: Cn1cc(CNCC2CCN(c3ncc(C(=O)NO)cn3)CC2)c2ccccc21 [quisinostat]
Outline: as §1

[15] = compound: Cn1cncc1[C@@](N)(c1ccc(Cl)cc1)c1ccc2c(c1)c(-c1cccc(Cl)c1)cc(=O)n2C [tipifarnib]
Outline: as §1

[16] = compound: NC(=O)Nc1cc(-c2cccc(F)c2)sc1C(=O)N[C@H]1CCCNC1
Outline: as §1

[17] = compound: NC(=O)c1cnc(N[C@@H]2CCCC[C@@H]2N)nc1Nc1cccc(-n2nccn2)c1
Outline: as §1

[18] = compound: NC1(c2ccc(-c3nc4ccn5c(=O)[nH]nc5c4cc3-c3ccccc3)cc2)CCC1
Outline: as §1

[19] = compound: CS(=O)(=O)N1CCN(Cc2cc3nc(-c4cccc5[nH]ncc45)nc(N4CCOCC4)c3s2)CC1 [pictilisib]
Outline: as §1

[20] = compound: Cc1ccc(NC(=O)c2ccc(CN3CC[C@H](N(C)C)C3)c(C(F)(F)F)c2)cc1Nc1nccc(-c2cncnc2)n1 [bafetinib]
Outline: as §1

Target: HIRA (UniProt P54198)
- log2 fold change [1]: inactive: -0.044
- log2 fold change [2]: inactive: -0.047
- log2 fold change [3]: inactive: 0.074
- log2 fold change [4]: inactive: -0.009
- log2 fold change [5]: inactive: -0.017
- log2 fold change [6]: inactive: 0.176
- log2 fold change [7]: inactive: -0.039
- log2 fold change [8]: inactive: -0.021
- log2 fold change [9]: inactive: 0.05
- log2 fold change [10]: inactive: -0.065
- log2 fold change [11]: inactive: -0.016
- log2 fold change [12]: inactive: 0.103
- log2 fold change [13]: inactive: -0.012
- log2 fold change [14]: inactive: 0.002
- log2 fold change [15]: inactive: -0.004
- log2 fold change [16]: inactive: 0.016
- log2 fold change [17]: inactive: -0.057
- log2 fold change [18]: inactive: -0.017

Target: HNRNPL, A0A3B3ITJ4
- log2 fold change [1]: inactive: -0.011
- log2 fold change [19]: inactive: -0.002
- log2 fold change [20]: inactive: -0.083
- log2 fold change [17]: inactive: 0.019

Target: HEXD isoform 2 (UniProt Q8WVB3)
- log2 fold change [1]: inactive: -0.026
- log2 fold change [19]: inactive: -0.025
- log2 fold change [3]: inactive: -0.142
- log2 fold change [5]: inactive: 0.061
- log2 fold change [6]: inactive: -0.124
- log2 fold change [20]: inactive: -0.093
- log2 fold change [8]: inactive: -0.018
- log2 fold change [17]: inactive: 0.04
- log2 fold change [18]: inactive: -0.002

Target: HMBOX1 isoform 5 (UniProt Q6NT76)
- log2 fold change [1]: active: 0.254
- log2 fold change [19]: inactive: -0.097
- log2 fold change [2]: inactive: 0.023
- log2 fold change [3]: inactive: 0
- log2 fold change [4]: inactive: 0.021
- log2 fold change [5]: inactive: 0.052
- log2 fold change [6]: inactive: 0.035
- log2 fold change [7]: inactive: -0.013
- log2 fold change [20]: inactive: 0.112
- log2 fold change [8]: inactive: 0.129
- log2 fold change [9]: inactive: 0.186
- log2 fold change [10]: inactive: -0.038
- log2 fold change [11]: inactive: -0.034
- log2 fold change [12]: inactive: 0.078
- log2 fold change [13]: inactive: 0.024
- log2 fold change [14]: inactive: -0.008
- log2 fold change [15]: inactive: 0.077
- log2 fold change [16]: inactive: 0.001
- log2 fold change [17]: inactive: 0.041
- log2 fold change [18]: inactive: -0.055

Target: HMGN1 (UniProt P05114)
- log2 fold change [1]: inactive: 0.017
- log2 fold change [19]: inactive: 0.014
- log2 fold change [2]: inactive: 0.056
- log2 fold change [3]: inactive: 0.041
- log2 fold change [4]: inactive: 0.052
- log2 fold change [5]: inactive: 0.02
- log2 fold change [6]: inactive: -0.011
- log2 fold change [7]: inactive: -0.075
- log2 fold change [20]: inactive: 0.01
- log2 fold change [8]: inactive: -0.099
- log2 fold change [9]: inactive: -0.01
- log2 fold change [10]: inactive: 0.022
- log2 fold change [11]: inactive: 0.086
- log2 fold change [12]: inactive: -0.012
- log2 fold change [13]: inactive: 0.045
- log2 fold change [14]: inactive: 0.008
- log2 fold change [15]: inactive: -0.028
- log2 fold change [16]: inactive: -0.016
- log2 fold change [17]: inactive: -0.005
- log2 fold change [18]: inactive: -0.013

Target: HIGD1A isoform 2 (UniProt Q9Y241)
- log2 fold change [1]: inactive: 0.138
- log2 fold change [3]: inactive: -0.281
- log2 fold change [4]: inactive: 0.076
- log2 fold change [5]: inactive: 0.188
- log2 fold change [8]: inactive: 0.078
- log2 fold change [11]: inactive: 0.032
- log2 fold change [13]: inactive: -0.05
- log2 fold change [17]: inactive: 0.013
- log2 fold change [18]: inactive: -0.136

Target: HES1 (UniProt Q14469)
- log2 fold change [1]: inactive: -0.046
- log2 fold change [3]: inactive: -0.211
- log2 fold change [4]: inactive: -0.036
- log2 fold change [5]: inactive: 0.122
- log2 fold change [6]: inactive: -0.084
- log2 fold change [8]: inactive: 0.092
- log2 fold change [9]: inactive: -0.06
- log2 fold change [10]: inactive: 0.007
- log2 fold change [11]: inactive: -0.072
- log2 fold change [12]: inactive: 0.227
- log2 fold change [13]: inactive: 0.021
- log2 fold change [15]: inactive: 0.134
- log2 fold change [17]: inactive: 0.069
- log2 fold change [18]: inactive: 0.046

Target: HRAS (UniProt P01112)
- log2 fold change [1]: inactive: -0.003
- log2 fold change [2]: inactive: 0.094
- log2 fold change [4]: inactive: -0.011
- log2 fold change [6]: inactive: 0.042
- log2 fold change [7]: inactive: 0.029
- log2 fold change [9]: inactive: 0.109
- log2 fold change [10]: inactive: -0.144
- log2 fold change [11]: inactive: 0.079
- log2 fold change [12]: inactive: -0.139
- log2 fold change [13]: inactive: -0.006
- log2 fold change [14]: inactive: 0.07
- log2 fold change [15]: inactive: 0.058
- log2 fold change [16]: inactive: -0.029
- log2 fold change [17]: inactive: 0.001
- log2 fold change [18]: inactive: 0.073

Target: HPS4 isoform 4 (UniProt Q9NQG7)
- log2 fold change [1]: inactive: -0.059
- log2 fold change [19]: inactive: -0.21
- log2 fold change [2]: inactive: -0.114
- log2 fold change [4]: inactive: 0.01
- log2 fold change [6]: inactive: 0.028
- log2 fold change [7]: inactive: -0.018
- log2 fold change [20]: inactive: 0.143
- log2 fold change [11]: inactive: 0.021
- log2 fold change [13]: inactive: -0.018
- log2 fold change [14]: inactive: 0.012
- log2 fold change [16]: inactive: -0.051
- log2 fold change [17]: inactive: 0.153
- log2 fold change [18]: inactive: -0.042

Target: HSCB (UniProt Q8IWL3)
- log2 fold change [1]: inactive: 0.011
- log2 fold change [19]: inactive: -0.051
- log2 fold change [2]: inactive: 0.015
- log2 fold change [3]: inactive: -0.026
- log2 fold change [4]: inactive: -0.007
- log2 fold change [5]: inactive: 0.09
- log2 fold change [6]: inactive: 0.136
- log2 fold change [7]: inactive: -0.045
- log2 fold change [20]: inactive: -0.117
- log2 fold change [8]: inactive: 0.033
- log2 fold change [11]: inactive: -0.009
- log2 fold change [13]: inactive: -0.016
- log2 fold change [14]: inactive: 0.093
- log2 fold change [16]: inactive: 0.037
- log2 fold change [17]: inactive: 0.035
- log2 fold change [18]: inactive: 0.009

Target: HPCAL1 (UniProt P37235)
- log2 fold change [1]: inactive: 0.02
- log2 fold change [19]: inactive: -0.024
- log2 fold change [2]: inactive: 0.093
- log2 fold change [3]: inactive: -0.064
- log2 fold change [4]: inactive: 0.001
- log2 fold change [5]: inactive: 0.022
- log2 fold change [6]: inactive: 0.024
- log2 fold change [7]: inactive: 0.038
- log2 fold change [20]: inactive: 0.015
- log2 fold change [8]: inactive: 0.049
- log2 fold change [9]: inactive: -0.008
- log2 fold change [10]: inactive: 0.004
- log2 fold change [11]: inactive: 0.015
- log2 fold change [12]: inactive: -0.032
- log2 fold change [13]: inactive: 0.023
- log2 fold change [14]: inactive: 0.053
- log2 fold change [15]: inactive: 0.043
- log2 fold change [16]: inactive: -0.052
- log2 fold change [17]: inactive: -0.013
- log2 fold change [18]: inactive: 0.046

Target: HMOX2 (UniProt P30519)
- log2 fold change [1]: inactive: 0.004
- log2 fold change [19]: inactive: -0.042
- log2 fold change [2]: inactive: 0.003
- log2 fold change [3]: inactive: -0.03
- log2 fold change [4]: inactive: 0.017
- log2 fold change [5]: inactive: 0.024
- log2 fold change [6]: inactive: 0.04
- log2 fold change [7]: inactive: 0.03
- log2 fold change [20]: inactive: -0.03
- log2 fold change [8]: inactive: -0.001
- log2 fold change [9]: inactive: -0.029
- log2 fold change [10]: inactive: -0.042
- log2 fold change [11]: inactive: -0.014
- log2 fold change [12]: inactive: -0.066
- log2 fold change [13]: inactive: 0.048
- log2 fold change [14]: inactive: -0.019
- log2 fold change [15]: inactive: 0.101
- log2 fold change [16]: inactive: -0.013
- log2 fold change [17]: inactive: 0.004
- log2 fold change [18]: inactive: -0.02

Target: HIST2H2AA3 (UniProt Q6FI13)
- log2 fold change [1]: inactive: 0.001
- log2 fold change [19]: inactive: -0.016
- log2 fold change [2]: inactive: 0.049
- log2 fold change [3]: active: 0.555
- log2 fold change [4]: inactive: -0.044
- log2 fold change [5]: inactive: -0.143
- log2 fold change [6]: inactive: 0.022
- log2 fold change [7]: inactive: -0.088
- log2 fold change [20]: inactive: 0.159
- log2 fold change [8]: inactive: -0.171
- log2 fold change [9]: inactive: 0.135
- log2 fold change [10]: inactive: -0.098
- log2 fold change [11]: inactive: 0.081
- log2 fold change [12]: inactive: 0.035
- log2 fold change [13]: inactive: -0.041
- log2 fold change [14]: inactive: 0.064
- log2 fold change [15]: inactive: 0.058
- log2 fold change [16]: inactive: 0.076
- log2 fold change [17]: inactive: 0.01
- log2 fold change [18]: inactive: 0.048
